In paper PMC9005958:

Tested on: T1, GST-rCtrA (Ehrlichia chaffeensis)
T1 sequence (looked up): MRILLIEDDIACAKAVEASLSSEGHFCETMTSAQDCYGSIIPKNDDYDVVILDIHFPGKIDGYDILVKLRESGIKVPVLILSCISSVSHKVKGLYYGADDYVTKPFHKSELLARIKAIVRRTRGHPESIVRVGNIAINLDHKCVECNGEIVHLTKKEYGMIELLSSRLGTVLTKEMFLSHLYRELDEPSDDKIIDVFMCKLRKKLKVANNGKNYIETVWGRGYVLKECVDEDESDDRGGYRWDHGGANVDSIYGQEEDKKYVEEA
Assay: EMSA
Conditions: 2.5 uM protein, 50 ng DNA; EMSA: 10 mM Tris-HCl pH 7.5, 1 mM DTT, 20 ul, on ice 30 min; 8% native PAGE in 1x TBE, ethidium bromide stain; recombinant protein; residues 1-265; protein details: N-terminal GST (pET-41a(+)); probe letters rebuilt from the primers and the genome

| Sequence | binding result |
| --- | --- |
| GAACGTCTGGTTGGTCTGCTCAATGGTATGAGATGGTAGCAGAAGAAAATTATAAAATATGTCGTCCACGTCAGTTGTATACTGGTAATATTGCAGAATGTTAACATAATTTTGAATTATCATTGCTTATTGTTTTAATATTATTGATAATTATGCGCATATTAATTGTGGATTTGTATATGTATATCTTGTTAACCATAAAAATTATTTAGAAGTGTATATAATTAGAAATATGTGTTAATATATGAGGGTAATCTTAGGATATAAACATAGATATAAGTTAAAAATGAAGTTATATACTGTAGTTGTAATATTACGTTAAGTAAAAATTTTTTATGCTTAACTATGGATAATTATCTTAAAGTGTTGATGTCCTATGAGTTTACTCGCA (double strand) [gshA promoter] | binds |
| TCTTATAACCCTTACTTTATTGAATGAGAATAACAAAATTCTTAAGATATCGAAATATAAAAGATCATGACGTAAACAACATACTAGTTCATATGCTATCTTATATTAAGCATTCACAAAAAAGACCTTGATTCAGCAAACTAGCATAAAAAACTTGGAAGATATTAAACACAACATTTAAAACTTAAAGACATACTTATATTAAATGAAGAATTAATCACATATTACAATACAAAAGTACATTTTAAACATGTATTAATTATATGTCATACGTATGTAATTCACACATTTATTTATAGTCCTACAGTAATGTAAAATTACTTATTGTAAAAAACAGCGTATATAAAATTGAAGTAGATGATTAATCACGTAACTTGCTATCCTTTAATCTTACATAACTAATAACTTGTTTTACTTTTTTGACTTTTTGCGCTATTGATACAACCTTATCCAACTCCTC (double strand) [gshB promoter] | binds |

Where a protein sequence is shown, tags need not be part of it.
